Laboratory results: PubChem BioAssay AID1508597 (Cure First, 2020)
In all, the deposit lists about 2,100 reagents; below is a part drawn at random. 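Calls flag viability under 80% in either arm, not effects specific to rucaparib; the reference for percent is not stated.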 Entries without a mark were called inactive. Not given: the 100% reference.

Assay: 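Genes whose silencing sensitises or protects ovarian cancer cells against rucaparib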 (primary screen)
System: human ovarian carcinoma lines grown from tumours: OCI-P5x (papillary serous) and OCI-C5x (clear cell)
Reagent: siRNA pool against human genes, 1.25 pmol siRNA per well
Timing: 72 h or 96 h, depending on the cell culture
Treatment: rucaparib 20 µM (about IC30) or vehicle, present until read-out
Measured: 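ATP luminescence measured at 72 or 96 h according to the culture, then normalised and expressed as percent viability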
Scale: viability, normalised: higher = more viable cells remaining
Active means: 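a well counts as a hit if its normalised viability is under 80 percent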
Meaning of the calls: active = viability under 80%; inactive = viability 80% or more

| viability, normalised (%) | gene symbol | rucaparib or vehicle | cell line | technical replicate |
| --- | --- | --- | --- | --- |
| 50.6 (active) | EPHB1 (EPH receptor B1) | Rucaparib | OCI-C5x (clear cell) | 1 |
| 80.7 | EPHB1 (EPH receptor B1) | Rucaparib | OCI-C5x (clear cell) | 2 |
| 61 (active) | EPHB1 (EPH receptor B1) | Rucaparib | OCI-C5x (clear cell) | 3 |
| 100 | EPHB1 (EPH receptor B1) | Rucaparib | OCI-P5x (serous) | 1 |
| 105 | EPHB1 (EPH receptor B1) | Rucaparib | OCI-P5x (serous) | 2 |
| 103 | EPHB1 (EPH receptor B1) | Rucaparib | OCI-P5x (serous) | 3 |
| 65.9 (active) | EPHB1 (EPH receptor B1) | Vehicle | OCI-C5x (clear cell) | 1 |
| 69.5 (active) | EPHB1 (EPH receptor B1) | Vehicle | OCI-C5x (clear cell) | 2 |
| 64.9 (active) | EPHB1 (EPH receptor B1) | Vehicle | OCI-C5x (clear cell) | 3 |
| 89.6 | EPHB1 (EPH receptor B1) | Vehicle | OCI-P5x (serous) | 1 |
| 94.5 | EPHB1 (EPH receptor B1) | Vehicle | OCI-P5x (serous) | 2 |
| 118 | EPHB1 (EPH receptor B1) | Vehicle | OCI-P5x (serous) | 3 |
| 52.5 (active) | MAP3K6 (mitogen-activated protein kinase kinase kinase 6) | Rucaparib | OCI-C5x (clear cell) | 1 |
| 75.4 (active) | MAP3K6 (mitogen-activated protein kinase kinase kinase 6) | Rucaparib | OCI-C5x (clear cell) | 2 |
| 72.6 (active) | MAP3K6 (mitogen-activated protein kinase kinase kinase 6) | Rucaparib | OCI-C5x (clear cell) | 3 |
| 124 | MAP3K6 (mitogen-activated protein kinase kinase kinase 6) | Rucaparib | OCI-P5x (serous) | 1 |
| 134 | MAP3K6 (mitogen-activated protein kinase kinase kinase 6) | Rucaparib | OCI-P5x (serous) | 2 |
| 119 | MAP3K6 (mitogen-activated protein kinase kinase kinase 6) | Rucaparib | OCI-P5x (serous) | 3 |
| 80.8 | MAP3K6 (mitogen-activated protein kinase kinase kinase 6) | Vehicle | OCI-C5x (clear cell) | 1 |
| 64.7 (active) | MAP3K6 (mitogen-activated protein kinase kinase kinase 6) | Vehicle | OCI-C5x (clear cell) | 2 |
| 67.5 (active) | MAP3K6 (mitogen-activated protein kinase kinase kinase 6) | Vehicle | OCI-C5x (clear cell) | 3 |
| 117 | MAP3K6 (mitogen-activated protein kinase kinase kinase 6) | Vehicle | OCI-P5x (serous) | 1 |
| 95.6 | MAP3K6 (mitogen-activated protein kinase kinase kinase 6) | Vehicle | OCI-P5x (serous) | 2 |
| 97 | MAP3K6 (mitogen-activated protein kinase kinase kinase 6) | Vehicle | OCI-P5x (serous) | 3 |
| 52.9 (active) | CFAP46 (cilia and flagella associated protein 46) | Rucaparib | OCI-C5x (clear cell) | 1 |
| 78.7 (active) | CFAP46 (cilia and flagella associated protein 46) | Rucaparib | OCI-C5x (clear cell) | 2 |
| 72.9 (active) | CFAP46 (cilia and flagella associated protein 46) | Rucaparib | OCI-C5x (clear cell) | 3 |
| 67.7 (active) | CFAP46 (cilia and flagella associated protein 46) | Rucaparib | OCI-P5x (serous) | 1 |
| 89.4 | CFAP46 (cilia and flagella associated protein 46) | Rucaparib | OCI-P5x (serous) | 2 |
| 83.9 | CFAP46 (cilia and flagella associated protein 46) | Rucaparib | OCI-P5x (serous) | 3 |
| 58.1 (active) | CFAP46 (cilia and flagella associated protein 46) | Vehicle | OCI-C5x (clear cell) | 1 |
| 73.8 (active) | CFAP46 (cilia and flagella associated protein 46) | Vehicle | OCI-C5x (clear cell) | 2 |
| 63.7 (active) | CFAP46 (cilia and flagella associated protein 46) | Vehicle | OCI-C5x (clear cell) | 3 |
| 83.1 | CFAP46 (cilia and flagella associated protein 46) | Vehicle | OCI-P5x (serous) | 1 |
| 87.8 | CFAP46 (cilia and flagella associated protein 46) | Vehicle | OCI-P5x (serous) | 2 |
| 79.8 (active) | CFAP46 (cilia and flagella associated protein 46) | Vehicle | OCI-P5x (serous) | 3 |
| 49.1 (active) | PTGR1 (prostaglandin reductase 1) | Rucaparib | OCI-C5x (clear cell) | 1 |
| 44.9 (active) | PTGR1 (prostaglandin reductase 1) | Rucaparib | OCI-C5x (clear cell) | 2 |
| 43 (active) | PTGR1 (prostaglandin reductase 1) | Rucaparib | OCI-C5x (clear cell) | 3 |
| 47 (active) | PTGR1 (prostaglandin reductase 1) | Rucaparib | OCI-P5x (serous) | 1 |
| 50.3 (active) | PTGR1 (prostaglandin reductase 1) | Rucaparib | OCI-P5x (serous) | 2 |
| 46.3 (active) | PTGR1 (prostaglandin reductase 1) | Rucaparib | OCI-P5x (serous) | 3 |
| 52 (active) | PTGR1 (prostaglandin reductase 1) | Vehicle | OCI-C5x (clear cell) | 1 |
| 46 (active) | PTGR1 (prostaglandin reductase 1) | Vehicle | OCI-C5x (clear cell) | 2 |
| 49.5 (active) | PTGR1 (prostaglandin reductase 1) | Vehicle | OCI-C5x (clear cell) | 3 |
| 63.2 (active) | PTGR1 (prostaglandin reductase 1) | Vehicle | OCI-P5x (serous) | 1 |
| 63.8 (active) | PTGR1 (prostaglandin reductase 1) | Vehicle | OCI-P5x (serous) | 2 |
| 151 | PTGR1 (prostaglandin reductase 1) | Vehicle | OCI-P5x (serous) | 3 |
| 37.8 (active) | PHF5A (PHD finger protein 5A) | Rucaparib | OCI-C5x (clear cell) | 1 |
| 29.5 (active) | PHF5A (PHD finger protein 5A) | Rucaparib | OCI-C5x (clear cell) | 2 |
| 35.5 (active) | PHF5A (PHD finger protein 5A) | Rucaparib | OCI-C5x (clear cell) | 3 |
| 38.2 (active) | PHF5A (PHD finger protein 5A) | Rucaparib | OCI-P5x (serous) | 1 |
| 38.7 (active) | PHF5A (PHD finger protein 5A) | Rucaparib | OCI-P5x (serous) | 2 |
| 42.5 (active) | PHF5A (PHD finger protein 5A) | Rucaparib | OCI-P5x (serous) | 3 |
| 31.9 (active) | PHF5A (PHD finger protein 5A) | Vehicle | OCI-C5x (clear cell) | 1 |
| 38.5 (active) | PHF5A (PHD finger protein 5A) | Vehicle | OCI-C5x (clear cell) | 2 |
| 31.7 (active) | PHF5A (PHD finger protein 5A) | Vehicle | OCI-C5x (clear cell) | 3 |
| 45.5 (active) | PHF5A (PHD finger protein 5A) | Vehicle | OCI-P5x (serous) | 1 |
| 44.3 (active) | PHF5A (PHD finger protein 5A) | Vehicle | OCI-P5x (serous) | 2 |
| 86.6 | PHF5A (PHD finger protein 5A) | Vehicle | OCI-P5x (serous) | 3 |

An excerpt taken from the entries so far:
| viability, normalised (%) | gene symbol | rucaparib or vehicle | cell line | technical replicate |
| --- | --- | --- | --- | --- |
| 78.7 (active) | CFAP46 (cilia and flagella associated protein 46) | Rucaparib | OCI-C5x (clear cell) | 2 |
| 72.9 (active) | CFAP46 (cilia and flagella associated protein 46) | Rucaparib | OCI-C5x (clear cell) | 3 |
| 67.7 (active) | CFAP46 (cilia and flagella associated protein 46) | Rucaparib | OCI-P5x (serous) | 1 |
| 89.4 | CFAP46 (cilia and flagella associated protein 46) | Rucaparib | OCI-P5x (serous) | 2 |
| 83.9 | CFAP46 (cilia and flagella associated protein 46) | Rucaparib | OCI-P5x (serous) | 3 |
| 58.1 (active) | CFAP46 (cilia and flagella associated protein 46) | Vehicle | OCI-C5x (clear cell) | 1 |
| 73.8 (active) | CFAP46 (cilia and flagella associated protein 46) | Vehicle | OCI-C5x (clear cell) | 2 |
